Data on one substance can be found in article PMC8785589.

The assay deals with T1, HA-tagged p100 (UniProt Q00653).
T1 sequence: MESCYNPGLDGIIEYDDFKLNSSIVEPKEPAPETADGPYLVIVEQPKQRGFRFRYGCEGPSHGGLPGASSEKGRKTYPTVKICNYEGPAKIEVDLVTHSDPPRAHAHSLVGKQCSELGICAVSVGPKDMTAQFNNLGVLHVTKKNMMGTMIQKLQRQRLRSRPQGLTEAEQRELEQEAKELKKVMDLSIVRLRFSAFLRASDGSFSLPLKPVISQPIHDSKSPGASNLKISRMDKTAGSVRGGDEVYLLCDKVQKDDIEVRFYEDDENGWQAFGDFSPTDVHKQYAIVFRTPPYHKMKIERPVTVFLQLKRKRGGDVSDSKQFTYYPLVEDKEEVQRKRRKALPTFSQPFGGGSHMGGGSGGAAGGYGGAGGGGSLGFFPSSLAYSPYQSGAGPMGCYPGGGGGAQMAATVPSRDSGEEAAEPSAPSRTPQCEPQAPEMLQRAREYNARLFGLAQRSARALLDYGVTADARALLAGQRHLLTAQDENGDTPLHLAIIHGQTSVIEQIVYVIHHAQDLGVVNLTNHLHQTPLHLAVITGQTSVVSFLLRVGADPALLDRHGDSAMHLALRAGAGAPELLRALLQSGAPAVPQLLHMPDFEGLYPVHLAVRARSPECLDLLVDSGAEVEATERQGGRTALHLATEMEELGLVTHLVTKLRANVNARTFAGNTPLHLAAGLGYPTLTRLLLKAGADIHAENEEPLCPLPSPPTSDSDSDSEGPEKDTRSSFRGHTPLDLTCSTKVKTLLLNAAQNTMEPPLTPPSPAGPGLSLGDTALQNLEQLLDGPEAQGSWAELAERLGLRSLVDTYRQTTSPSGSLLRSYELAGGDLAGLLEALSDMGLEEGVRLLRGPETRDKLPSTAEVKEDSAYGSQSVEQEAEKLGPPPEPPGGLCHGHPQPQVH
The assay is described as follows: co-IP; HEK293T co-transfected with FLAG-Vpx and an HA-tagged protein, 24 h; lysis in 0.5% NP-40 in PBS with protease and phosphatase inhibitors; anti-HA agarose beads 2-4 h, 3 washes; blots for FLAG and HA.

Results are given in words; binding and its absence hold for the method and conditions named. Binding seen in cells or lysates may run through a third protein. Tags and fused reporters may be left off the sequences shown.

Take FLAG-tagged SIVmac Vpx (SIVmac251): the binding result was “no binding”.
